Laboratory results: PubChem BioAssay AID686943 (Drosophila RNAi Screening Center, 2013)
In all, the deposit lists about 23,000 reagents; this is a random part of those that have a named target and a result. 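Extra replicates exist only for a retested subset of genes; insulin dose and duration not given; both raised and lowered dpERK matter.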 Reagents against one gene are numbered here. A plus sign joins genes that one reagent is predicted to hit. No sequences are given here. The record does not give: the amount of reagent, the time to read-out.

- Screen: 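Fly genes whose loss alters ERK activation after insulin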 (primary screen)
- Cells: Drosophila S2R+ haemocyte-like cells expressing YFP-tagged ERK (Rolled)
- Reagents: long dsRNA against Drosophila genes
- Challenge: insulin stimulation versus unstimulated cells; dose and duration not given
- Measured: 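Per-plate z-scores of phospho-ERK immunostaining normalised to YFP-tagged ERK, measured with and without insulin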
- Reading the numbers: replicate 1, z-score of dpERK with insulin and replicate 2, z-score of dpERK with insulin: higher = more active ERK per ERK-YFP after insulin; replicate 1, z-score of dpERK under basal conditions: higher = more basal active ERK per ERK-YFP; replicate 1, z-score of ERK-YFP with insulin: higher = more YFP-tagged ERK signal

The opening 2 records as a preview:
predicted target,dsRNA no.,"replicate 1, z-score of dpERK with insulin","replicate 2, z-score of dpERK with insulin","replicate 1, z-score of dpERK under basal conditions","replicate 1, z-score of ERK-YFP with insulin"
CG13712,1,-1.21,0.39,-0.09,0.24
CG32718,1,0.15,-0.1,-0.13,-0.06

The list itself, from the first entry:
predicted target,dsRNA no.,"replicate 1, z-score of dpERK with insulin","replicate 2, z-score of dpERK with insulin","replicate 1, z-score of dpERK under basal conditions","replicate 1, z-score of ERK-YFP with insulin"
CG13712,1,-1.21,0.39,-0.09,0.24
CG32718,1,0.15,-0.1,-0.13,-0.06
PTP-ER,1,0.86,0.79,2.16,0.63
CG7271,1,-0.74,1.41,0.17,-0.73
CG34241,1,1.23,0.16,0.83,-0.25
Pdcd4,1,0.06,-1.02,0.01,0.52
CG3984,1,0.2,-0.84,-0.37,0.25
CG9632,1,0.22,0.24,0.25,-0.2
CG42741,1,-0.18,-0.24,0.73,0.24
CG42741,2,-0.37,-0.28,0.32,0.43
asRNA:CR43469 + Balat,1,-0.22,0.34,0.12,-0.13
CAP,1,-0.15,-0.25,-0.82,0.36
CAP,2,0.85,0.69,1.1,-0.61
CAP,3,0.17,0.4,-0.65,-0.16
CAP,4,-0.35,0.16,0.19,0.25
CAP,5,0.28,0.6,0.04,-0.24
CG8206,1,-0.98,-0.39,0.95,0.48
Rad9,1,0.08,0.11,0.46,0.28
Ugt302K1,1,0.75,0.9,-0.35,0.21
Cpsf100,1,2.64,1.35,0.81,-1.25
CG7706,1,0.13,-0.13,-0.15,0.43
ana1,1,0.67,0.27,-0.32,1.12
ana1,2,0.81,0.36,-0.18,0.01
